Source: the odorant receptor screen of Mainland et al. (2015)
Several values for one entry are separate records, joined by “and”; a condition that tells them apart may be missing. Identical values can stand only once. Some of the results follow. Single wells; the ratio to wells without odorant was worked out here, and repeats agree poorly.

Tests used:
Experiment in all cases: odorant receptor activation (CRE luciferase / Renilla) (fold of no-odor wells); higher = more activation
Conditions in all cases: 100 µM
OR2Z1 clone 1296 = tested on: OR2Z1 clone 1296
OR3A1 clone 1288 = tested on: OR3A1 clone 1288
OR3A2 clone 1286 = tested on: OR3A2 clone 1286
OR3A3 clone 1549 = tested on: OR3A3 clone 1549
[1] = tested on: OR3A4 I42V/S86R/E103Q/I120V/P168T/N175S clone 1550
OR4A15 A257V clone 1216 = tested on: OR4A15 A257V clone 1216
OR4A16 clone 1518 = tested on: OR4A16 clone 1518
OR4A4 clone 1134 = tested on: OR4A4 clone 1134
[2] = tested on: OR4A47 I104L/V145M clone 1579
OR4A5 clone 1637 = tested on: OR4A5 clone 1637
OR4B1 clone 1189 = tested on: OR4B1 clone 1189
OR4C11 clone 1244 = tested on: OR4C11 clone 1244
OR4C12 V283L clone 1155 = tested on: OR4C12 V283L clone 1155
OR4C15 clone 1337 = tested on: OR4C15 clone 1337
OR4C15 clone 1449 = tested on: OR4C15 clone 1449
[3] = tested on: OR4C16 V25L/T76A/L259P clone 1237
OR4C3 clone 1284 = tested on: OR4C3 clone 1284
OR4C3 clone 1480 = tested on: OR4C3 clone 1480
OR4C46 K288R clone 1483 = tested on: OR4C46 K288R clone 1483
OR4C5 clone 1307 = tested on: OR4C5 clone 1307

SMILES	odorant receptor activation (OR2Z1 clone 1296)	odorant receptor activation (OR3A1 clone 1288)	odorant receptor activation (OR3A2 clone 1286)	odorant receptor activation (OR3A3 clone 1549)	odorant receptor activation [1]	odorant receptor activation (OR4A15 A257V clone 1216)	odorant receptor activation (OR4A16 clone 1518)	odorant receptor activation (OR4A4 clone 1134)	odorant receptor activation [2]	odorant receptor activation (OR4A5 clone 1637)	odorant receptor activation (OR4B1 clone 1189)	odorant receptor activation (OR4C11 clone 1244)	odorant receptor activation (OR4C12 V283L clone 1155)	odorant receptor activation (OR4C15 clone 1337)	odorant receptor activation (OR4C15 clone 1449)	odorant receptor activation [3]	odorant receptor activation (OR4C3 clone 1284)	odorant receptor activation (OR4C3 clone 1480)	odorant receptor activation (OR4C46 K288R clone 1483)	odorant receptor activation (OR4C5 clone 1307)
O=C1CCCCCCCCCCCCCCO1 [pentadecalactone]	0.672	0.761	0.757	0.863	0.824	0.969	0.688	0.926	0.836	0.702	0.648	0.751	0.605	0.86	1.32	0.969	0.67	0.745	0.76	0.815
CCCC(=O)O [butyric acid]	0.855	0.976	0.706	1.05	1.3	1.07	1.25	1.09	0.876	0.801	1.13	1.1	1.11	0.913	0.183	0.817	0.836	0.902	1.22	1.17
C=C(C)C1CC=C(C)C(=O)C1 (stereo not given) [r-carvone]	0.716	0.691	0.746	1.01	0.952	1.16	0.749	1.34	0.772	0.677	0.762	0.928	0.759	0.8	1.17	0.684	0.859	0.845	0.863	1.08
CCCCCCCCCC=O [decyl aldehyde]	0.838	1.19	0.978	1.04	0.913	1.33	0.922	1.52	0.726	1.72	1.29	1.59	1.31	1.09	1.57	0.8	1.46	1.04	1.2	1.41
CCCCCCCCCCC=O [undecanal]	0.943	0.902	0.881	0.731	0.785	0.954	0.947	1.08	0.738	0.531	0.697	1.06	0.885	0.87	1.16	0.962	0.956	1.14	1.1	1.11
CC12CCC(C1)C(C)(C)C2=O (stereo not given) [fenchone]	0.772	1.12	0.938	0.927	0.695	1.07	0.854	1.04	0.788	1.04	1.03	0.956	0.979	0.895	0.99	1.25	1.04	1.03	1.01	0.968
C=CCSCC=C [diallyl sulfide]	0.768	1.02	0.864	1.07	0.844	1.43	1.27	1.16	0.591	1.02	1.05	1.04	1	0.9	1.3	0.797	0.902	1.17	1.22	1.19
CC(=O)OCC=C(C)CCC=C(C)C [geranyl acetate]	0.736 and 0.861	1.92 and 1.32	1.34 and 1.06	1.27	1.01	1.06	0.851 and 1.49	0.881	1.14	1.57	0.802	0.984 and 1.43	1.63	1.4 and 0.921	1.28	2.33	0.654 and 1.12	0.881 and 1.63	0.856 and 1.32	1.2 and 1.07
CC1CCC(C(C)C)C(O)C1 (single isomer, unassigned; (-)) [(-)-menthol]	0.587	0.542	0.821	0.873	0.729	1.17	3.9	1.68	1.02	1.25	1.15	0.519	1.22	0.854	0.887	1.47	0.597	3.57	5.15	1.04
CC(C)C(=O)O [isobutyric acid]	1.1 and 0.943	1.29 and 0.861	1.25 and 1.3	0.789	0.852	0.917	1.07 and 0.738	0.845	0.993	0.822	0.879	0.912 and 0.914	1.08	1.32 and 1.17	0.739	1.04	0.908 and 0.808	0.987 and 1.18	1.16 and 0.94	1.11 and 0.941
CCCCCCOC(=O)CCC [hexyl butyrate]	0.796 and 1.15	1.2 and 0.942	1.11 and 1.27	0.72	0.839	0.983	1.16 and 1.07	0.911	0.791	0.908	0.905	0.839 and 1.18	1.22	1.44 and 0.977	0.837	0.912	0.91 and 0.645	0.919 and 1.15	0.858 and 0.939	1.05 and 0.943
CC(=O)OC1CC2CCC1(C)C2(C)C (stereo not given) [isobornyl acetate]	0.898 and 1.24	1.22 and 1.09	1.56 and 1.14	0.889	0.773	1.26	1.05 and 0.995	0.939	1.09	0.981	0.896	1.25 and 0.945	0.996	1.39 and 0.992	0.807	0.816	0.939 and 0.717	0.888 and 1.39	1 and 1.21	0.984 and 0.883
CCC1(O)C2(C)CCC(C2)C1(C)C (stereo not given) [2-ethylfenchol]	0.731	0.733	0.726	0.63	0.653	0.686	1.17	1.14	0.65	0.829	1.18	1.12	1.29	1.01	0.772	0.846	0.936	1.2	1.27	0.866
C=CCc1ccc(OC)c(OC)c1 [eugenol methyl ether]	1.07	1.52	1.12	0.796	0.626	1.54	1.32	1.58	0.764	1.01	1.46	2.03	1.68	1.51	1.73	1.46	1.68	1.28	1.32	1.62
CCCCCCCCC=O [nonyl aldehyde]	0.632	1.01	1.34	1.3	1.22	0.999	1.01	1.01	0.968	0.706	0.766	0.988	1.04	1.15	0.954	0.847	1.04	1.08	1.1	1.14
CCCCCCCOC(C)=O [heptyl acetate]	0.866 and 0.825	1.37 and 1.27	1.46 and 1.06	0.696	0.642	0.928	0.72 and 1.25	0.931	0.648	0.678	0.818	0.957 and 1.17	0.861	1.15 and 0.993	1.09	0.855	0.488 and 1.04	0.93 and 1.44	1.02 and 1.51	0.985 and 1.09
c1cnccn1 [pyrazine]	0.819	0.864	0.749	1	0.888	0.9	0.722	1.18	0.819	0.643	0.751	0.754	0.667	0.659	1.17	0.803	0.827	0.797	0.697	0.874
CC(=O)C(C)=O [diacetyl]	0.953	1.11	0.883	0.928	0.815	1.37	1.2	1.2	0.714	0.872	1.16	1.23	1.44	1.14	1.36	0.897	1.42	1.22	1.17	1.25
C=CC(C)(O)CCC=C(C)C (stereo not given) [linalool]	0.648	0.819	1.06	0.736	0.746	0.926	0.951	0.99	1.06	0.995	0.977	0.844	1.35	0.954	1.14	1.07	1.11	0.816	1.32	0.9
CC(C)CC(=O)O [isovaleric acid]	0.461	0.866	0.824	0.878	0.941	1.33	0.825	1.12	1.17	1.02	1.19	1	1.4	1.05	0.737	1.2	0.777	0.826	1.05	0.844
CC(C)=CCCC(C)=CC=O [citral]	0.941	1.25	1.02	1.3	1.01	0.858	0.903	0.863	0.736	4.19	1	1.09	1.22	1.1	0.183	0.948	0.913	1.03	1.16	1.23
CC(=O)OC(C)(C)C1CC=C(C)CC1 (stereo not given) [terpinyl acetate]	0.809	0.792	0.699	0.731	0.805	1.24	0.828	1.39	0.681	0.576	0.838	0.968	0.898	0.736	1.02	0.797	1.01	1.05	0.855	1.02
CC1CCC(C(C)C)C(O)C1 (single isomer, unassigned; (+)) [(+)-menthol]	0.831	0.621	0.801	0.794	0.924	1.02	1.1	1.12	1.07	1.11	1.26	1.02	1.07	0.955	0.948	0.698	0.907	0.978	1.19	1.05
CCCCO [1-butanol]	0.634	0.828	0.578	0.802	0.872	1.13	1.09	1.09	0.875	1.11	1.07	1.24	0.989	1.06	1.04	0.833	0.899	1.02	1.28	1.4
CC1=CCC(C(C)(C)O)CC1 (stereo not given) [terpineol]	0.879	0.781	0.786	0.667	0.684	1.16	0.831	1.48	0.901	0.549	0.77	1.07	0.883	0.831	1.18	1.14	0.997	0.767	0.813	0.859
CC/C=C\CCO [cis-3-hexen-1-ol]	0.911	0.994	0.88	1.03	1.1	0.959	0.974	0.891	0.964	1.07	1.03	1.06	1.06	1.01	0.139	0.912	0.674	0.773	0.928	1.1
